Data published in paper PMC7981807.
These are yes or no findings as the source states them, for the method shown. Binding seen in cells or lysates may run through a third protein. Some results given as binding are weak or reduced against the parent protein; the word gives no strength. For some assays here: Where a sequence is shown, tags or fusion partners need not be part of it.

Protein sequences, listed by entry. Tags and fused reporters are not part of them. Lines headed by an entry give the natural chain unless they say otherwise; changes in a name come on top. Chains listed by the source or under a name are the forms on record and can include a tag or linker.
UniProt Q13547: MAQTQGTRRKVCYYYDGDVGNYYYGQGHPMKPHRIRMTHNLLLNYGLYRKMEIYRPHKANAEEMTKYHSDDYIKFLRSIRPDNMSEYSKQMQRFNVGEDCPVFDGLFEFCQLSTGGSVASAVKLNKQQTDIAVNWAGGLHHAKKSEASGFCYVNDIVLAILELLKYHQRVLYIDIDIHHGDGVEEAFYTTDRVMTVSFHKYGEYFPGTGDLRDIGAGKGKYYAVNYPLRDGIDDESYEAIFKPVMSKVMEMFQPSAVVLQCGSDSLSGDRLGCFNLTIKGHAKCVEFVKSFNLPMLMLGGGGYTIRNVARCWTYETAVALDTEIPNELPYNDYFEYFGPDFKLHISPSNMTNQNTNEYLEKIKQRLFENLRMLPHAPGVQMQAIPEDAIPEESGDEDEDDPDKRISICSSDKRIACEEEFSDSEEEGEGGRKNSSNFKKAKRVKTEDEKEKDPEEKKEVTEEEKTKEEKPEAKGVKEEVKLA
UniProt Q92793: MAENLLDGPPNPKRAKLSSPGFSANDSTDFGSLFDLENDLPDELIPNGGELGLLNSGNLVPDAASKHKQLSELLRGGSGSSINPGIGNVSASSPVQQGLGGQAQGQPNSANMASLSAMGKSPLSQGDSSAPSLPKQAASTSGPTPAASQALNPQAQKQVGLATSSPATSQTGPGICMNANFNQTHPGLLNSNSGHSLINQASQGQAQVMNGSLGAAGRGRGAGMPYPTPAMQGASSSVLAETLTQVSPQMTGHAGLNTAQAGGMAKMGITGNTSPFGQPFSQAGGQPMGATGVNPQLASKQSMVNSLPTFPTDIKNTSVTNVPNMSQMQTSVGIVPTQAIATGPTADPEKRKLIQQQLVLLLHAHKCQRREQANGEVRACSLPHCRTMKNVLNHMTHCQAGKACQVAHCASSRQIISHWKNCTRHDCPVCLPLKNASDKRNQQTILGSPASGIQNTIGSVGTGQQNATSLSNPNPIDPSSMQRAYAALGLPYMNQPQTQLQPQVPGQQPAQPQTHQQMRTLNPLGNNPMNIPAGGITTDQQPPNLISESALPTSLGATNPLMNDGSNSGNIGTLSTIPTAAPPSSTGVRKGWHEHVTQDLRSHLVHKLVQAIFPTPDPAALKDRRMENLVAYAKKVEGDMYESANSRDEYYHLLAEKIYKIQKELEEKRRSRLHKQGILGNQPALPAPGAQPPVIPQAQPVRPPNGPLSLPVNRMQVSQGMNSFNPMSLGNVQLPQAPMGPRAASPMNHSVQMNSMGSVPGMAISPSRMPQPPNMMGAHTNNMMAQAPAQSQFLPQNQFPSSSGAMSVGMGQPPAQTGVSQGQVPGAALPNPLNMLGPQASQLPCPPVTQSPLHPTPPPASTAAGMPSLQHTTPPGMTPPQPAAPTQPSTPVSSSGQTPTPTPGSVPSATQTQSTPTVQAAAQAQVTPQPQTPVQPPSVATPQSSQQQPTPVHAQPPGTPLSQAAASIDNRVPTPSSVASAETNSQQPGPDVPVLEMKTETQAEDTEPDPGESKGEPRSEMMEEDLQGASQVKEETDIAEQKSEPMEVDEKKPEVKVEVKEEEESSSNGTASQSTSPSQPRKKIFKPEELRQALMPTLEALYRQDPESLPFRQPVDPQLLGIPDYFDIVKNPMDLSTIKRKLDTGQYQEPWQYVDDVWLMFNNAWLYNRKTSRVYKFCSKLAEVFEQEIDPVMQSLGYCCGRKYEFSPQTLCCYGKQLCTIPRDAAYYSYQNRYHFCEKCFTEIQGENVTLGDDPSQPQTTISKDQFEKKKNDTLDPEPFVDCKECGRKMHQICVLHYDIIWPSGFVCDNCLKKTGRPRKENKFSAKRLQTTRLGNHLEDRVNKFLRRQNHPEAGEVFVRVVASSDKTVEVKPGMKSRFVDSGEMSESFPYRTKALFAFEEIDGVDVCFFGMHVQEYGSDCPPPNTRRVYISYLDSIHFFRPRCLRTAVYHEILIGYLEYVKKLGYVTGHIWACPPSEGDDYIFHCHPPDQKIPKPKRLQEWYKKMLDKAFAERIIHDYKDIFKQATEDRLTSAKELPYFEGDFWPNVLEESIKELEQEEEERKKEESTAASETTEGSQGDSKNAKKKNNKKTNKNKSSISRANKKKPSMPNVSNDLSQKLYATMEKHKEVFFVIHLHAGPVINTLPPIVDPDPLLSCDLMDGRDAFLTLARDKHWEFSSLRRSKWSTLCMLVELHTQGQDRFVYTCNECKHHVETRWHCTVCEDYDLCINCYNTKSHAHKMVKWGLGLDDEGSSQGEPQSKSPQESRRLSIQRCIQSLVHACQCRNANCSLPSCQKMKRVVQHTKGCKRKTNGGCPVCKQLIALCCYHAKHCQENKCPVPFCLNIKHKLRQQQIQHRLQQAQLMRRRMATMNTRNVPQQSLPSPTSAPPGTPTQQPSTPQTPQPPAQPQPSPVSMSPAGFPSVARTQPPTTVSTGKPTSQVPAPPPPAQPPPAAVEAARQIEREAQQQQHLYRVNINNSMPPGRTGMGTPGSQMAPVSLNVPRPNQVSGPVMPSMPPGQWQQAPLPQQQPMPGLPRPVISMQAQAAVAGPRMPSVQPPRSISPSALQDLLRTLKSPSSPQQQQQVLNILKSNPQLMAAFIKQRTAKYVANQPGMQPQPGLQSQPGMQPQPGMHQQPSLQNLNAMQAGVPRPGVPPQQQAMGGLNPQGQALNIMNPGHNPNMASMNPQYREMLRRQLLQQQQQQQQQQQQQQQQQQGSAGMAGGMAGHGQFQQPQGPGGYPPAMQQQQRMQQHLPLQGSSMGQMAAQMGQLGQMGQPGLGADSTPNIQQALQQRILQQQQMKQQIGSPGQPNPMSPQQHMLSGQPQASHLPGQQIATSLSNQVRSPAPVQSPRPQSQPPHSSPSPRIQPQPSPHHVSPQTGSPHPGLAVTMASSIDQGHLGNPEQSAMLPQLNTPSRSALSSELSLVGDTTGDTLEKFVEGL
UniProt Q09472: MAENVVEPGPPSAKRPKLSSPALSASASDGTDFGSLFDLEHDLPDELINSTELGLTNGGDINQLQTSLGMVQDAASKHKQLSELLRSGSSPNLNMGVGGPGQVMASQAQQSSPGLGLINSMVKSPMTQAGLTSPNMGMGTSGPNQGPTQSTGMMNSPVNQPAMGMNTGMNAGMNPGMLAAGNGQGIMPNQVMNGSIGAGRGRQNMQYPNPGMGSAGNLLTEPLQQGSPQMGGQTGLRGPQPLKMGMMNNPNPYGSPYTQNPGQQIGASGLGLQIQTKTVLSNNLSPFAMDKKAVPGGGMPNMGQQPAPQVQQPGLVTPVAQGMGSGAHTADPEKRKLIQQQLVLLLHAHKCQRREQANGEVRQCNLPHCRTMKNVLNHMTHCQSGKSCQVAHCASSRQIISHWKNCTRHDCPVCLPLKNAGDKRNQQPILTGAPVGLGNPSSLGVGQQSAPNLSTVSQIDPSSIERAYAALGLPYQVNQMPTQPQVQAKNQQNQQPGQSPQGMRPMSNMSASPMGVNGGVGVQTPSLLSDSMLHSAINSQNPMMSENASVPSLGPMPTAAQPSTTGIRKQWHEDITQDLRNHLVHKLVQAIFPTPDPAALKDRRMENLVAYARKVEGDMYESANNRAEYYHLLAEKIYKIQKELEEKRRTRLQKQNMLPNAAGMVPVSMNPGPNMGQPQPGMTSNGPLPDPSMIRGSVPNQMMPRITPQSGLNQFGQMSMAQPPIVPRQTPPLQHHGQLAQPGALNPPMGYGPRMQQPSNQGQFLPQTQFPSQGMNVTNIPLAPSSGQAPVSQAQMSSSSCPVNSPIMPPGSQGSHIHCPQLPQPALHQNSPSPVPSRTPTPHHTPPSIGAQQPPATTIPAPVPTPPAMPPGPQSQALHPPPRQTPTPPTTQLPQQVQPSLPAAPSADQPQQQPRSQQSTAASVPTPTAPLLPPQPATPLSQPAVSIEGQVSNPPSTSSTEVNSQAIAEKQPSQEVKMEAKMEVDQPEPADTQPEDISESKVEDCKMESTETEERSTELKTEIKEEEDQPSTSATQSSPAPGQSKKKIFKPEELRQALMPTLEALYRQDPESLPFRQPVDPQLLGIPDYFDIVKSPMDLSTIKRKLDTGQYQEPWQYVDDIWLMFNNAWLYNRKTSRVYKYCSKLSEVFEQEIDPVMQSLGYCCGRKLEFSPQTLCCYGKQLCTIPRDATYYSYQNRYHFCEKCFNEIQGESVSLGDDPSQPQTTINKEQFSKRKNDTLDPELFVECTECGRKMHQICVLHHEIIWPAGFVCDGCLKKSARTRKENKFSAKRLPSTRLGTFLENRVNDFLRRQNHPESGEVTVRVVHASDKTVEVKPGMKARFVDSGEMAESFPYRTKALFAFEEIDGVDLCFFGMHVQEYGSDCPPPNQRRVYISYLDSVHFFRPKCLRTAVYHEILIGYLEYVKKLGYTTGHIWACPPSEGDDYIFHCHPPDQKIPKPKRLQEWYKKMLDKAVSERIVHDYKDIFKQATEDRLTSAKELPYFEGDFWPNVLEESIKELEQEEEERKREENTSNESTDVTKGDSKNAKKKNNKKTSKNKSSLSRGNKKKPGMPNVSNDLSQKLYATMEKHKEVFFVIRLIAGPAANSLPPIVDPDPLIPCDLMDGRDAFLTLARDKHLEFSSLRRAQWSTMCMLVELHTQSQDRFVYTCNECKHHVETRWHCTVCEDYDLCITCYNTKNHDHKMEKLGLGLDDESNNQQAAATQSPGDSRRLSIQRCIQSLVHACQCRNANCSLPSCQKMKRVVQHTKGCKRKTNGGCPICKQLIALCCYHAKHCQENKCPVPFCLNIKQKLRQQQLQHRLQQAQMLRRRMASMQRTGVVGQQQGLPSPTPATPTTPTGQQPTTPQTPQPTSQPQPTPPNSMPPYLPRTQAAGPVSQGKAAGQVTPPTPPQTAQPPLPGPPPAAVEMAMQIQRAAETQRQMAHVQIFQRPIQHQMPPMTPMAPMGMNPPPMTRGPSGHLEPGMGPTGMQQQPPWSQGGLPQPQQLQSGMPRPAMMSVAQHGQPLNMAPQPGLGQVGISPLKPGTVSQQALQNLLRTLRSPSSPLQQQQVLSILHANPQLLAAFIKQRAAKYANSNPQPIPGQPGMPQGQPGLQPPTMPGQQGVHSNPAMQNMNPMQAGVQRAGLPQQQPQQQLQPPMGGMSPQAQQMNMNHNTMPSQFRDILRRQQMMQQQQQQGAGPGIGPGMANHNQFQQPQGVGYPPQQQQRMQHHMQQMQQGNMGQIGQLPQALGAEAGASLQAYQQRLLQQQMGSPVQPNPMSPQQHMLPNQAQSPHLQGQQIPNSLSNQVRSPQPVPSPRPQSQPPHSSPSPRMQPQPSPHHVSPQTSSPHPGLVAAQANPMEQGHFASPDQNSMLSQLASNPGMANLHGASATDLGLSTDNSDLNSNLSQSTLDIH
UniProt Q01196: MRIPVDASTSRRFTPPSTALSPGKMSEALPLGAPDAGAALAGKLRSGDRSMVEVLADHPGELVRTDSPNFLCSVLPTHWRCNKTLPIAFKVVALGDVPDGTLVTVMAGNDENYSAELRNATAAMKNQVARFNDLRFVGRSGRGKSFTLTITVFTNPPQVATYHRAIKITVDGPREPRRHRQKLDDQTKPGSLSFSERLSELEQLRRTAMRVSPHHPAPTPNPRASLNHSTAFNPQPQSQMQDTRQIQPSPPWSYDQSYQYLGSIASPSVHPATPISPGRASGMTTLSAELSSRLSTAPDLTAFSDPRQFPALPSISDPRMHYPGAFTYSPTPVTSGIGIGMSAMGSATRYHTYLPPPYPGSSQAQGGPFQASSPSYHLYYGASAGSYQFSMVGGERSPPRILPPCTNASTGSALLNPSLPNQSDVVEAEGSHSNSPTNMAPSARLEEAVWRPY
RUNX1^Δ50−175 (Q01196, form named): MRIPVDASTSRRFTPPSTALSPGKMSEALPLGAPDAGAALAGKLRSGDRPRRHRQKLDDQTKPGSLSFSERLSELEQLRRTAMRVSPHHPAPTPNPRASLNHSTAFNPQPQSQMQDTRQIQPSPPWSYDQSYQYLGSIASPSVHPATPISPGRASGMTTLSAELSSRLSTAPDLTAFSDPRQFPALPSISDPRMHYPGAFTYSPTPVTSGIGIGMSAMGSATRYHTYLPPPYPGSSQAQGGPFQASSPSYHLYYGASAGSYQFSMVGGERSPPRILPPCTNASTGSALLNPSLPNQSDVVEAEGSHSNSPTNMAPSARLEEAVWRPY
RUNX1^Δ244−322 (Q01196, form named): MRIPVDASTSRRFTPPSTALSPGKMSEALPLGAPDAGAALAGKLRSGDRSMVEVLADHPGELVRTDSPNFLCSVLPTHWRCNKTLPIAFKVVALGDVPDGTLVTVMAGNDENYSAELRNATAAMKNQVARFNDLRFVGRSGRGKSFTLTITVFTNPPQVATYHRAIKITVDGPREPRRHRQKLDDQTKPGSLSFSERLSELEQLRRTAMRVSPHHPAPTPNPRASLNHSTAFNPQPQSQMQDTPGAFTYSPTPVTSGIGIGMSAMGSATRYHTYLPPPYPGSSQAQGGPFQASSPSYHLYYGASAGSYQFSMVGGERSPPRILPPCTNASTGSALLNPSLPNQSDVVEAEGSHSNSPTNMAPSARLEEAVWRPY

Experiments:
CBFA2T3-Flag (human) [1] = biological target: T1, CBFA2T3-Flag (human) (UniProt O75081); assay: proximity ligation; PLA of exogenous RUNX1 and CBFA2T3 in HEK293 cells in presence or absence of CBFA2T3^NHR2-Myc
T1 sequence: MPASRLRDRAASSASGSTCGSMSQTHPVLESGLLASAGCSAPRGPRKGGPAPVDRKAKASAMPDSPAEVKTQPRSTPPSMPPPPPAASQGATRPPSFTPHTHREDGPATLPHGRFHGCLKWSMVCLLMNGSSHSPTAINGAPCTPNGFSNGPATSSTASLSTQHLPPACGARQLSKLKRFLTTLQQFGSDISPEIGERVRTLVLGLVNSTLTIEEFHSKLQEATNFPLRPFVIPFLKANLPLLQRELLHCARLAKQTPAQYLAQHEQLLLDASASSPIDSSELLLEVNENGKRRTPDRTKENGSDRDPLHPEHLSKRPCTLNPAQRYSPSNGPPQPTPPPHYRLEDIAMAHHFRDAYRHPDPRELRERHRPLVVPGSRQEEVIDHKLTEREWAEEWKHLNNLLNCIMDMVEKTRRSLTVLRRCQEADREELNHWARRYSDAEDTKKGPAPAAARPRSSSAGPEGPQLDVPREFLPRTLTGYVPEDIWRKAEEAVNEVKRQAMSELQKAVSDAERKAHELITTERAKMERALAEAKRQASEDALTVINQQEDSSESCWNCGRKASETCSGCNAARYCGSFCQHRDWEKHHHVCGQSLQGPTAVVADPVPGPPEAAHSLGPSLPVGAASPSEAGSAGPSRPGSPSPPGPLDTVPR

CBFA2T3-Flag (human) [2] = biological target: T1, CBFA2T3-Flag (human); assay: co-IP; anti-Flag magnetic beads (M2), overnight at 4 °C, washed with TBS; HEK293 cells expressing tagged full-length or truncated proteins; blots with RUNX1, Myc and CBFA2T3 antibodies
CBFA2T3-Flag (human) [3] = biological target: T1, CBFA2T3-Flag (human); assay: co-IP; anti-Flag antibody in HEK293 cells expressing RUNX1-Halotag, CBFA2T3-Flag or CBFA2T3^NHR2-Myc; competition
[4] = biological target: T2, CBFA2T3 (Core-Binding Factor Runt Domain Alpha Subunit 2 Translocated To 3), endogenous (human (endogenous in REH, Nalm6 and BCP-ALL patients' cells)) (UniProt O75081); assay: proximity ligation; Duolink PLA on endogenous proteins, dots per nucleus, in REH cells, Nalm6 cells and BCP-ALL patients' cells; cut-off two S.D. over the negative control, Fisher's exact test
T2 sequence: T1 sequence

[5] = biological target: HDAC1, endogenous (human (endogenous in REH and Nalm6)) (UniProt Q13547); assay: as above
[6] = biological target: CREBPP (CBP), endogenous (human (endogenous in REH and Nalm6)) (UniProt Q92793); assay: as above
[7] = biological target: T3, SIN3A, endogenous (human (endogenous in REH and Nalm6)) (UniProt Q96ST3); assay: as above
T3 sequence: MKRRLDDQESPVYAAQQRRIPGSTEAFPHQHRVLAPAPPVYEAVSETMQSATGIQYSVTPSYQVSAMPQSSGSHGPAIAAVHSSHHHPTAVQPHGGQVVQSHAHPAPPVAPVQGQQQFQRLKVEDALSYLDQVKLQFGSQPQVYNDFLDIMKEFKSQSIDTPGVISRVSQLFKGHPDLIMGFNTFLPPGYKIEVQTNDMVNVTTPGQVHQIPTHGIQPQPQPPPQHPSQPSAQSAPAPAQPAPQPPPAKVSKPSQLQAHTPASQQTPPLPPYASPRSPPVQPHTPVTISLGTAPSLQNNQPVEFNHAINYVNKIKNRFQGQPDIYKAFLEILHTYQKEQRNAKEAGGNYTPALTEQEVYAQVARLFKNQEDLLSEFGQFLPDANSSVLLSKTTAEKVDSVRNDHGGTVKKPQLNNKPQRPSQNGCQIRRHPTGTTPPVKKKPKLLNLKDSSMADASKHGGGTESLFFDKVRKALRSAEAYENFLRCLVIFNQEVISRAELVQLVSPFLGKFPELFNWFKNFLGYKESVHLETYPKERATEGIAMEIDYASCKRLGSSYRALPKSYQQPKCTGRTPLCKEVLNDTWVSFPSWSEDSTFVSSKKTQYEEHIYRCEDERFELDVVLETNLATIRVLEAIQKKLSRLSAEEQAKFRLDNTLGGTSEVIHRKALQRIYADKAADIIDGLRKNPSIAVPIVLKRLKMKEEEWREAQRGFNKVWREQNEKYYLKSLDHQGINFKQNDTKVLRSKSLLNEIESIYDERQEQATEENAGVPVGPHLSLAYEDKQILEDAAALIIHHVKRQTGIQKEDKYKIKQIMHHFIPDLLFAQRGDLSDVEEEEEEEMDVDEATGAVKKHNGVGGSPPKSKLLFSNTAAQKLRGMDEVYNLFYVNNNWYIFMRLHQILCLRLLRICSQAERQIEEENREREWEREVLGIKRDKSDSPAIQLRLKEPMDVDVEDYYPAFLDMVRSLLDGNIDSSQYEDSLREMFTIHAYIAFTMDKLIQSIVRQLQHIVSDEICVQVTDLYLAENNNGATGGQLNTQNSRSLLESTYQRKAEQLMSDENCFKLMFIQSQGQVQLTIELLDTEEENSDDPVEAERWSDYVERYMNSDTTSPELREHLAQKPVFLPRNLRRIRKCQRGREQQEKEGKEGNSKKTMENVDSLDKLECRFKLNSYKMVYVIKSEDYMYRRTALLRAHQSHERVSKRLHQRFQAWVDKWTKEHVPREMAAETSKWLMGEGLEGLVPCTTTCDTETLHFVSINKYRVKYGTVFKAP

[8] = biological target: EP300 (P300), endogenous (human (endogenous in REH and Nalm6)) (UniProt Q09472); assay: as above
[9] = biological target: T2, CBFA2T3 (Core-Binding Factor Runt Domain Alpha Subunit 2 Translocated To 3), endogenous (human (endogenous in REH, Nalm6 and BCP-ALL patients' cells)); assay: proximity ligation; PLA of endogenous RUNX1 and CBFA2T3 in REH cells in presence or absence of CBFA2T3^NHR2-Myc

Substance: RUNX1-Halotag (from UniProt Q01196 1-453)
- binding (CBFA2T3-Flag (human) [1]): binds
- binding (CBFA2T3-Flag (human) [2]): binds
- binding (CBFA2T3-Flag (human) [3]): binds

Substance: RUNX1^Δ50−175 (from UniProt Q01196 1-453)
- binding (CBFA2T3-Flag (human) [2]): binds

Substance: RUNX1 (Runt Related Transcription Factor 1), endogenous (from UniProt Q01196 1-453)
- binding [4]: binds
- binding [5]: binds
- binding [6]: binds
- binding [7]: binds
- binding [8]: binds
- binding [9]: binds

Substance: RUNX1^Δ244−322 (from UniProt Q01196 1-453)
- binding (CBFA2T3-Flag (human) [2]): binds weakly
